PubChem BioAssay AID1259254, NCATS – 2017

Purpose: 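Gene knock-downs that lead to re-replication, shown by excess G2 DNA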 (primary screen)
Cells: human HCT116 colorectal cancer cells
Reagents: single siRNA against human genes
Duration: 3 days
Measurement: 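Imaged Hoechst DNA stain sorts each cell into a cycle phase by DNA amount; per plate, G2 fraction set to 0% for non-targeting and 100% for GMNN siRNA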
Reading the numbers: G2 robust z-score: higher = more G2 cells, more excess DNA replication
Hit rule: 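An siRNA counts as active if its G2 robust z-score lies at least 5 MADs above the screen median; here such calls match roughly 38% of GMNN control or more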
The deposit covers about 59,000 reagents; below is a random part of them. About 1,550 of them (2.6%) count as active. 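G2 share is only a proxy for re-replication; each gene was hit by three separate siRNAs, and active genes were retested.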 Unmarked entries are inactive. Reagents against one gene are numbered here. Further read-outs or replicates are left out here. The record does not give: the amount of reagent.

With CDC5L (cell division cycle 5 like) #1, what does the deposit list?
G2 robust z-score: -0.261

With CDC5L (cell division cycle 5 like) #2, what was measured?
G2 robust z-score: 0.946

With CDC5L (cell division cycle 5 like) #3, how do the results read?
G2 robust z-score: 1.27

With MPZL2 (myelin protein zero like 2) #1, how do the results read?
G2 robust z-score: 3.58

What is on record for MPZL2 (myelin protein zero like 2) #2?
G2 robust z-score: -0.851

What is on record for MPZL2 (myelin protein zero like 2) #3?
G2 robust z-score: 0.733

How did the screen score NALF1 (NALCN channel auxiliary factor 1) #1?
G2 robust z-score: 0.349

With NALF1 (NALCN channel auxiliary factor 1) #2, what does the deposit list?
G2 robust z-score: -0.326

For NALF1 (NALCN channel auxiliary factor 1) #3, what was measured?
G2 robust z-score: -0.885

Which result is listed for RTCA (RNA 3'-terminal phosphate cyclase) #1?
G2 robust z-score: 1.36

What is on record for RTCA (RNA 3'-terminal phosphate cyclase) #2?
G2 robust z-score: -0.686

Which result is listed for RTCA (RNA 3'-terminal phosphate cyclase) #3?
G2 robust z-score: -0.488

Copied from the entries so far (2 entries):
CDC5L (cell division cycle 5 like) #3 — G2 robust z-score = 1.27
MPZL2 (myelin protein zero like 2) #1 — G2 robust z-score = 3.58

The listing continues.
With CCBE1 (collagen and calcium binding EGF domains 1) #1, what was measured?
G2 robust z-score: -0.0907

For CCBE1 (collagen and calcium binding EGF domains 1) #2, what was measured?
G2 robust z-score: 0.433

Which result is listed for CCBE1 (collagen and calcium binding EGF domains 1) #3?
G2 robust z-score: -0.991

With TRAPPC8 (trafficking protein particle complex subunit 8) #1, what does the deposit list?
G2 robust z-score: 3.15

How did the screen score TRAPPC8 (trafficking protein particle complex subunit 8) #2?
G2 robust z-score: -0.6

What is on record for TRAPPC8 (trafficking protein particle complex subunit 8) #3?
G2 robust z-score: 0.298

For LEO1 (LEO1 component of Paf1/RNA polymerase II complex) #1, how do the results read?
G2 robust z-score: -0.522

Which result is listed for LEO1 (LEO1 component of Paf1/RNA polymerase II complex) #2?
G2 robust z-score: 3.13

What did the screen give for LEO1 (LEO1 component of Paf1/RNA polymerase II complex) #3?
G2 robust z-score: 0.919

For CXCL9 (C-X-C motif chemokine ligand 9) #1, what does the deposit list?
G2 robust z-score: 0.844

With CXCL9 (C-X-C motif chemokine ligand 9) #2, what was measured?
G2 robust z-score: -0.558

For CXCL9 (C-X-C motif chemokine ligand 9) #3, what does the deposit list?
G2 robust z-score: 2.28
